Values from PubChem BioAssay AID1224829 (NIAID, 2016).

- Assay: 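Genes needed for LPS-driven NF-kappaB p65 nuclear entry in mouse macrophages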 (follow-up of hits)
- System: mouse RAW264.7 G9 macrophage reporter cells
- Reagent: single siRNA against mouse genes, 100 nM
- Duration: 2 days of siRNA knock-down, then 40 min of LPS before fixing
- Treatment: LPS (Salmonella minnesota R595) at 10 ng/ml
- Measured: 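High-content images after 40 min LPS exposure; GFP-p65 nucleus to surrounding ring signal ratio, normalised to plate median and non-targeting control wells, expressed as z-score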
- Direction: p65 translocation z-score and gene median z-score, per vendor: higher = more nuclear NF-kappaB p65 after LPS
- Call rule: 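An siRNA is called active when the mean z-score of its two replicates is above 2 or below -2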
- Meaning of the calls: active = changed p65 translocation (either direction); inactive = no clear change
The whole screen tested about 3,800 reagents; shown is a random part of them. 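Calls cover raised and lowered translocation; gene median uses one vendor's three siRNAs; qiagen siRNAs acted more weakly than ambion siRNAs.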 The numbers tell different reagents against one gene apart.

The opening 2 entries, ahead of the listing:
no.	gene	reagent	siRNA vendor or control pool	p65 translocation z-score, replicate mean	p65 translocation z-score, replicate 1	p65 translocation z-score, replicate 2	gene median z-score, per vendor	call
1	Vmn1r231 (vomeronasal 1 receptor 231)	1	ambion single siRNA	-2.79	-2.74	-2.84	-3.71	active
2	Vmn1r231 (vomeronasal 1 receptor 231)	2	ambion single siRNA	-3.71	-3.3	-4.12	-3.71	active

The list itself, from the start:
no.	gene	reagent	siRNA vendor or control pool	p65 translocation z-score, replicate mean	p65 translocation z-score, replicate 1	p65 translocation z-score, replicate 2	gene median z-score, per vendor	call
1	Vmn1r231 (vomeronasal 1 receptor 231)	1	ambion single siRNA	-2.79	-2.74	-2.84	-3.71	active
2	Vmn1r231 (vomeronasal 1 receptor 231)	2	ambion single siRNA	-3.71	-3.3	-4.12	-3.71	active
3	Vmn1r231 (vomeronasal 1 receptor 231)	3	ambion single siRNA	-6.36	-6.91	-5.82	-3.71	active
4	Vmn1r231 (vomeronasal 1 receptor 231)	4	qiagen single siRNA	0.0478	-0.489	0.584	-0.513	inactive
5	Vmn1r231 (vomeronasal 1 receptor 231)	5	qiagen single siRNA	-4.89	-5.13	-4.66	-0.513	active
6	Vmn1r231 (vomeronasal 1 receptor 231)	6	qiagen single siRNA	-0.316	-0.0965	-0.536	-0.513	inactive
7	Eif3e (eukaryotic translation initiation factor 3, subunit E)	1	ambion single siRNA	0.899	0.557	1.24	-0.885	inactive
8	Eif3e (eukaryotic translation initiation factor 3, subunit E)	2	ambion single siRNA	-0.966	-1.11	-0.825	-0.885	inactive
9	Eif3e (eukaryotic translation initiation factor 3, subunit E)	3	ambion single siRNA	-3.02	-0.945	-5.1	-0.885	active
10	Eif3e (eukaryotic translation initiation factor 3, subunit E)	4	qiagen single siRNA	1.64	1.52	1.75	1.52	inactive
11	Eif3e (eukaryotic translation initiation factor 3, subunit E)	5	qiagen single siRNA	-1.77	-1.77		1.52	inactive
12	Eif3e (eukaryotic translation initiation factor 3, subunit E)	6	qiagen single siRNA	1.7	0.657	2.75	1.52	inactive
13	Il17rd (interleukin 17 receptor D)	1	ambion single siRNA	1.3	1.49	1.11	0.547	inactive
14	Il17rd (interleukin 17 receptor D)	2	ambion single siRNA	0.547	0.878	0.217	0.547	inactive
15	Il17rd (interleukin 17 receptor D)	3	ambion single siRNA	-4.45	-4.17	-4.72	0.547	active
16	Il17rd (interleukin 17 receptor D)	4	qiagen single siRNA	0.385	0.135	0.634	0.135	inactive
17	Il17rd (interleukin 17 receptor D)	5	qiagen single siRNA	1.35	-0.175	2.87	0.135	inactive
18	Il17rd (interleukin 17 receptor D)	6	qiagen single siRNA	-3.32	-3.32		0.135	active
19	Hexb (hexosaminidase B)	1	ambion single siRNA	0.0628	-0.684	0.81	0.81	inactive
20	Hexb (hexosaminidase B)	2	ambion single siRNA	2.81	2.54	3.09	0.81	active
21	Hexb (hexosaminidase B)	3	ambion single siRNA	-2.59	-2.59		0.81	active
22	Hexb (hexosaminidase B)	4	qiagen single siRNA	0.562	0.169	0.956	0.166	inactive
23	Hexb (hexosaminidase B)	5	qiagen single siRNA	-0.876	-0.574	-1.18	0.166	inactive
24	Hexb (hexosaminidase B)	6	qiagen single siRNA	0.401	0.639	0.163	0.166	inactive
